Experimental data as given in the supplement of paper PMC8633005.

Tests used:
Test in all cases: drug sensitivity score (DSS) (DSS (unitless, 0-50 scale)); higher = more sensitive (stronger viability inhibition); extreme values may be limits of the assay
Conditions in all cases: 72 h; culture: 2D
FM-MEL-3 = test system: FM-MEL-3
Method in brief: (§1)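 Viability was measured by CellTiter-Glo luminescence after 72 h at 37 °C in 384-well plates holding a 527-compound oncology library, with patient-derived melanoma cultures (1000–1500 cells per well) and melanoma cell lines grown in 2D. Every compound was tested at five concentrations spanning a 10,000-fold range. The drug sensitivity score, a modified area under the curve, came from dose-response curves fitted with in-house Breeze software.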

SK-MEL-28 = test system: SK-MEL-28
Method in brief: as §1

WM852 = test system: WM852
Method in brief: as §1

WM165 = test system: WM165
Method in brief: as §1

SK-MEL-2 = test system: SK-MEL-2
Method in brief: as §1

FM-MEL-6 = test system: FM-MEL-6
Method in brief: as §1

Bowes = test system: Bowes
Method in brief: as §1

**Q.** How did the drug sensitivity score (FM-MEL-3) turn out when C[C@@H]1C[C@H](N)C[C@H](c2ccncc2NC(=O)c2ccc(F)c(-c3c(F)cccc3F)n2)C1 [PIM-447] was run?
**A.** 1.9

**Q.** What about the drug sensitivity score (SK-MEL-28) of the same compound?
**A.** 2.7

**Q.** And the drug sensitivity score (WM852)?
**A.** 5.6

**Q.** What about the drug sensitivity score (WM165) of the same compound?
**A.** 4.1

**Q.** And the drug sensitivity score (SK-MEL-2)?
**A.** 0

**Q.** What about the drug sensitivity score (FM-MEL-6) of the same compound?
**A.** 4.6

**Q.** And the drug sensitivity score (Bowes)?
**A.** 0
